Measurements: patent US6342335B1, “Polymethine compounds, method of producing same, and use thereof” (Yamamoto Chemicals, Inc., priority 1999, dated 2002)

Assay: Laser writing on original plate for direct printing plate making
Settings: 0.1 weight part compound in light-to-heat conversion layer; 830 nm laser, beam diameter 10 μm, 110 mW on plate

## COCCN1/C(=C\C=C2/CCCC(/C=C/C3=[N+](CCOC)c4c(C)cc(OC)cc4C3(C)C)=C2Cl)C(C)(C)c2cc(OC)cc(C)c21 [Compound (55), 2-(2-{2-chloro-3-[(1,3-dihydro-3,3,7-trimethyl-5-methoxy-1-methoxyethyl-2H-indol-2-ylidene)ethylidene]-1-cyclohexen-1-yl}ethenyl)-3,3,7-trimethyl-5-methoxy-1-methoxyethylindolium=tetrafluoroborate]
  laser recording sensitivity: 200 mJ/cm^2
  resolution: 8 μm
